No constants are given. Whether binding was seen depends on the method and setting. For part of these data: Binding seen in cells or lysates may run through a third protein. Some results given as binding are weak or reduced against the parent protein; the word gives no strength. For part of these data: Sequences can lack the tags named with a protein.
T1: Dlc1 (endogenous, constitutively expressed) (mouse (endogenous in Bend3 and BC-7-2)) (UniProt Q9R0Z9)
T1 sequence: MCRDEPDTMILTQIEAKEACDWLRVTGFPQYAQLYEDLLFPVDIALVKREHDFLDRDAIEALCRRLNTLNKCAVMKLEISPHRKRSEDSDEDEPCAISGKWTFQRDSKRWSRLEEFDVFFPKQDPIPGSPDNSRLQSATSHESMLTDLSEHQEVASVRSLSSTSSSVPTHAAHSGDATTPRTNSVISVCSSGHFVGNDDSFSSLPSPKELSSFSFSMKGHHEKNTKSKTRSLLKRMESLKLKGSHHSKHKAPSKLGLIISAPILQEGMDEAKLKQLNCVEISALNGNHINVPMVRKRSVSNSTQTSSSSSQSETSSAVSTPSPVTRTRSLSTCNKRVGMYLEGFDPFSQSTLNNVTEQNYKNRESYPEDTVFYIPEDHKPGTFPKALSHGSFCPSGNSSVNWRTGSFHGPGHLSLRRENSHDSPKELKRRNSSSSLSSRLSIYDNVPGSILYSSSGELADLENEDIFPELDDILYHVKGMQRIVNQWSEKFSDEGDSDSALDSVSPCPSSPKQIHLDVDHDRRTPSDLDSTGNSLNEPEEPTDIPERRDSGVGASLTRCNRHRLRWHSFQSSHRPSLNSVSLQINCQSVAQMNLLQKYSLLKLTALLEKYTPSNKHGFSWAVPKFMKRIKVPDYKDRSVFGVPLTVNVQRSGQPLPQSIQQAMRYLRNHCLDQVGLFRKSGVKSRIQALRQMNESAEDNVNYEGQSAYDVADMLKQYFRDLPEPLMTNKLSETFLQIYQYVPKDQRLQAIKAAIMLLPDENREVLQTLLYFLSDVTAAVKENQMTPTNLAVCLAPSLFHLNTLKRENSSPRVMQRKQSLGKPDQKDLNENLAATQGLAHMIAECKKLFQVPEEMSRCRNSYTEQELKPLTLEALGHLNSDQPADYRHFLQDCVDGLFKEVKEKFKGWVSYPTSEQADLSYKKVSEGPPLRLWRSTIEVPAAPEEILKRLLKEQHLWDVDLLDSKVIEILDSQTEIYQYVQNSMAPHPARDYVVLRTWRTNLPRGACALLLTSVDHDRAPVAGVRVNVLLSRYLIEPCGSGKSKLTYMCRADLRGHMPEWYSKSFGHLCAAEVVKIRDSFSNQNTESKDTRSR

By UniProt entry, the sequences of proteins in these tests, tags left out.
UniProt Q8VDD5: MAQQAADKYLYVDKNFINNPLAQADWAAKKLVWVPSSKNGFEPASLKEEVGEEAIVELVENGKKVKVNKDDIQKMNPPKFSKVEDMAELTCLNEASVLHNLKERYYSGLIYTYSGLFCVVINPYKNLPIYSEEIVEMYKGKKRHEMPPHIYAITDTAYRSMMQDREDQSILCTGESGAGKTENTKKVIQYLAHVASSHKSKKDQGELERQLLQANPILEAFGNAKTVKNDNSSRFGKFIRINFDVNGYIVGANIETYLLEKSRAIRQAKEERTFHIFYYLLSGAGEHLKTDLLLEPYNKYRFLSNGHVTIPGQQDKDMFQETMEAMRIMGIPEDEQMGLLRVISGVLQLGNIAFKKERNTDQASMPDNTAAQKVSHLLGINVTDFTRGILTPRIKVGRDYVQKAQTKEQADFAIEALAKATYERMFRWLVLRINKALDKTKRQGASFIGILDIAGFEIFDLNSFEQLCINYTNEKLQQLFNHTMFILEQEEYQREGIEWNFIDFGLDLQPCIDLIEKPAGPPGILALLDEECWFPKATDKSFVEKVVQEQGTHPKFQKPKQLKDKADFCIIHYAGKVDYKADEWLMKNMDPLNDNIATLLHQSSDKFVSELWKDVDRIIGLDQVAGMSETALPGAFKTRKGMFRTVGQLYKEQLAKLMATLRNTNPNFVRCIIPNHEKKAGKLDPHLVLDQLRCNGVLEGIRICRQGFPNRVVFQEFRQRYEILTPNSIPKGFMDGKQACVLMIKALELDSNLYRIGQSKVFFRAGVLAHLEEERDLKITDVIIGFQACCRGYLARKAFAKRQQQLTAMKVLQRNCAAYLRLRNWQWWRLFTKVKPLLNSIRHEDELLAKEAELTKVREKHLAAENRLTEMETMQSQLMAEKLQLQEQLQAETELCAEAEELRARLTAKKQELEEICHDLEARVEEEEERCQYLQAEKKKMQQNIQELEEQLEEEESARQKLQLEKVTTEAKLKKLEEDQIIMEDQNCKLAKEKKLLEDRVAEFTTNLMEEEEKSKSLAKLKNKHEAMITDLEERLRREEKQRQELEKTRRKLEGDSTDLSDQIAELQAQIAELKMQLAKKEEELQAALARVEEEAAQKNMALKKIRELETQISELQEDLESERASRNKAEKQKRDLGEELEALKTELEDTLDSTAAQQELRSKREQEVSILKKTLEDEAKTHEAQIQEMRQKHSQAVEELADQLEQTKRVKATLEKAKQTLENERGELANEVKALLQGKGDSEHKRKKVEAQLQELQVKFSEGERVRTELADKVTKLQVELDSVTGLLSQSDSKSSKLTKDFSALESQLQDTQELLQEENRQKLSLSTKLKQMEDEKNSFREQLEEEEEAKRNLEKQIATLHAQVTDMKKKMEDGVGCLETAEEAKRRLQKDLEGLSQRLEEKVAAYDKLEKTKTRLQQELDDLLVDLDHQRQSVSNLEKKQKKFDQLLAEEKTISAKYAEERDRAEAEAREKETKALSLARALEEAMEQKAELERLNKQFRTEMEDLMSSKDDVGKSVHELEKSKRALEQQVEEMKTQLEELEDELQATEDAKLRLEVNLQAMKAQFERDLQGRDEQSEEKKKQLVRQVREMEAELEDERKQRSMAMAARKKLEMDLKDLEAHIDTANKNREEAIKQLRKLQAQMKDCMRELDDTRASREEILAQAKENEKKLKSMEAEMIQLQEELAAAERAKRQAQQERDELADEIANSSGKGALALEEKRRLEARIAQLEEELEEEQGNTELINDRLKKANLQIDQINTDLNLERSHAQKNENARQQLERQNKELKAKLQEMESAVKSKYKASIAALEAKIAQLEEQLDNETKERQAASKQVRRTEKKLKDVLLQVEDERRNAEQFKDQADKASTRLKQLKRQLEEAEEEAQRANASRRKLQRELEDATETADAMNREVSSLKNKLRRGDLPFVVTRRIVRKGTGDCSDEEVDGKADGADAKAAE

T2: Halo-tagged Dlc1 isoform 2 (mouse) (UniProt Q9R0Z9)
T2 sequence: T1 sequence

B1: Dlc1 (endogenous, constitutively expressed) (protein, UniProt Q9R0Z9 1-1092)
chain: T1 sequence

How the values were obtained:
[1] = target: T1, Dlc1 (endogenous, constitutively expressed) (mouse (endogenous in Bend3 and BC-7-2)); assay: native gel or EMSA; 2D BN-PAGE/SDS-PAGE of total BC 7-2 cell lysate (4-15% native gradient gel, then SDS-PAGE), immunoblot with anti-Dlc1, Myh9, Plec and Spectrin antibodies; members of one complex lie on a vertical line
[2] = target: non-muscle myosin heavy chain II-A (Myh9) (mouse (endogenous in OC-033, BC-7-2 and Bend3)) (UniProt Q8VDD5); assay: as above
[3] = target: T2, Halo-tagged Dlc1 isoform 2 (mouse); assay: pull-down; Halo-tagged Dlc1 isoforms transiently transfected in OC-033 cells; eluates of the Halo-resin pull-down run on SDS-PAGE and immunoblotted for Myh9, Plec and Spna2
[4] = target: non-muscle myosin heavy chain II-A (Myh9) (mouse (endogenous in OC-033, BC-7-2 and Bend3)) (UniProt Q8VDD5); assay: co-IP; reciprocal co-immunoprecipitation with anti-Dlc1 and anti-Myh9 antibodies from pre-cleared Bend3 cell lysate, endogenous proteins, immunoblot

Molecule	binding [1]	binding [2]	binding [3]	binding [4]
alpha spectrin 1 (Sptan1 also known as Spna2 and fodrin) (from UniProt P16546 1-2472)	binds	no binding	binds	
plectin (Plec) (from UniProt Q9QXS1 1-4691)	binds		binds	
B1				binds

From article PMC4890663
